For at least one entry, the source does not settle the construct or the ends of the probe. For some of these results: Weaker means in comparison with the reference protein, sequence or condition of that experiment. For some of these results: At least one verdict was read from the data and is not stated in words by the source. For some of these results: At least one result comes from cells or an extract, where the contact may be indirect.
What was measured:
EGFR on MDA-MB-231 cells = EGFR on MDA-MB-231 cells (UniProt P00533); assay: cell-surface fluorescence microscopy; details: 2.64 uM RNA, PBS with MgCl2, 25 C; 2'-fluoro pyrimidines (RNA strand); 20 mM HEPES pH 7.4, 150 mM NaCl, 10 mM MgCl2, BSA and yeast RNA 1 ug/20 uL each, 45 min at 37 C; protein on the cell surface; label: 5' biotin on DNA, SA-PE
complement iC3b (human) = assay: EMSA; details: 20 mM HEPES pH 7.4, 150 mM NaCl, 10 mM MgCl2, BSA and yeast RNA 1 ug/20 uL each, 45 min at 37 C, native protein
complement C3 (human) = assay: EMSA; details: 2'-fluoro pyrimidines, 20 mM HEPES pH 7.4, 150 mM NaCl, 10 mM MgCl2, BSA and yeast RNA 1 ug/20 uL each, native protein, label: 32P
complement C3b (human) = assay: EMSA; details: 2'-fluoro pyrimidines; 20 mM HEPES pH 7.4, 150 mM NaCl, 10 mM MgCl2, BSA and yeast RNA 1 ug/20 uL each, 45 min at 37 C; native protein; label: 32P

Chains of the proteins cited; added tags and fusions are not shown. A line that says so, or that is headed by a name, gives the form on record, which may keep a tag or linker.
complement C3 (human), one chain, as listed by the source, chain 2 of 2: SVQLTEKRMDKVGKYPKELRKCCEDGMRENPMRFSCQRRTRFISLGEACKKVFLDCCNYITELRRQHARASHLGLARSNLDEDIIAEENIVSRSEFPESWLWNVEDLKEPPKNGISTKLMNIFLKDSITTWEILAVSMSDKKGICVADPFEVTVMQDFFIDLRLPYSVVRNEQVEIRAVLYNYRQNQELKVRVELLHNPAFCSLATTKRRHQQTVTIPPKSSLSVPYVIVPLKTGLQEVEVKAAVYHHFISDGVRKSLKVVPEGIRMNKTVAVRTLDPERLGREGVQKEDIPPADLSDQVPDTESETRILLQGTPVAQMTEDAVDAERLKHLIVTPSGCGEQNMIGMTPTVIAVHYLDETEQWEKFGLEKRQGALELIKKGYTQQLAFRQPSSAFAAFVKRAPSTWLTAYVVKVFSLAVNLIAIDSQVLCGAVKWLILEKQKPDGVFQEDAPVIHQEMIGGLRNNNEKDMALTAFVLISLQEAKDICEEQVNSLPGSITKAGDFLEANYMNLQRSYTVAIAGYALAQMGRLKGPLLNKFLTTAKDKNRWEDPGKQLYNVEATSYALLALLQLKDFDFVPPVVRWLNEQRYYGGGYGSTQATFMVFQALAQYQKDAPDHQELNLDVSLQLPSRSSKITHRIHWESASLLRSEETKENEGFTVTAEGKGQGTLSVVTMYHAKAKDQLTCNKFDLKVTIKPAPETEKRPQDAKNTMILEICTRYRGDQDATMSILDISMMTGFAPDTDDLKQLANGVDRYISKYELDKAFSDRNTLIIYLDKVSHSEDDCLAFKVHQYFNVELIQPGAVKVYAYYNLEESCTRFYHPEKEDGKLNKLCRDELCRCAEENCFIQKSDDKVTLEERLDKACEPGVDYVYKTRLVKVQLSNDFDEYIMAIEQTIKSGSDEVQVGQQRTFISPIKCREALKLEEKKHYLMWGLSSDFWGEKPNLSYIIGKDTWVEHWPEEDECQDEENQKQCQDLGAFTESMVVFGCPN
complement iC3b (human), one chain, as listed by the source, chain 3 of 3: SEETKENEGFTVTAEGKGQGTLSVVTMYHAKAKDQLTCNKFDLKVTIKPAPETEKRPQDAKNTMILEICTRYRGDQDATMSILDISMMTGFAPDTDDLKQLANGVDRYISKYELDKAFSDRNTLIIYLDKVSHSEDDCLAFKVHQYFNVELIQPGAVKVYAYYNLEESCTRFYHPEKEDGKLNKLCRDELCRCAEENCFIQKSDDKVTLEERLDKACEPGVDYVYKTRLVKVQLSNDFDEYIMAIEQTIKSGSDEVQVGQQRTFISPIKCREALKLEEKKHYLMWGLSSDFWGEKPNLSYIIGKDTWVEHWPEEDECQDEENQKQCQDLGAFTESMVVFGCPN
complement iC3b (human), one chain, as listed by the source, chain 2 of 3: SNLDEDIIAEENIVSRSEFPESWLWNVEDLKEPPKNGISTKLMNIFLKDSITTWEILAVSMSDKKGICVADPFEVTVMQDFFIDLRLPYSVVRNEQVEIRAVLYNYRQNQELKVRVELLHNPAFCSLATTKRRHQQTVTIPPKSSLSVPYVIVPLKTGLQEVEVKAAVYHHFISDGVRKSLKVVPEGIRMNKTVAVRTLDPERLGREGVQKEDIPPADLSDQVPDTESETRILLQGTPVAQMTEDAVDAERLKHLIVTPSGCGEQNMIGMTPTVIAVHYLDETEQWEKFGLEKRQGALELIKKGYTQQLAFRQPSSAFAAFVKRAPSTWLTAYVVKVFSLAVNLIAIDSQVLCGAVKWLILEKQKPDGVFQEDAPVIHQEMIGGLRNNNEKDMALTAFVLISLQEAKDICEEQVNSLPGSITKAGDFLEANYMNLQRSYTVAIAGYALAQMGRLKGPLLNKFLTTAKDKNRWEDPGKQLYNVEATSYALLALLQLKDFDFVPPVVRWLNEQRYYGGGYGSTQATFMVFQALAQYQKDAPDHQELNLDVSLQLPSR
complement C3b (human), one chain, as listed by the source, chain 2 of 2: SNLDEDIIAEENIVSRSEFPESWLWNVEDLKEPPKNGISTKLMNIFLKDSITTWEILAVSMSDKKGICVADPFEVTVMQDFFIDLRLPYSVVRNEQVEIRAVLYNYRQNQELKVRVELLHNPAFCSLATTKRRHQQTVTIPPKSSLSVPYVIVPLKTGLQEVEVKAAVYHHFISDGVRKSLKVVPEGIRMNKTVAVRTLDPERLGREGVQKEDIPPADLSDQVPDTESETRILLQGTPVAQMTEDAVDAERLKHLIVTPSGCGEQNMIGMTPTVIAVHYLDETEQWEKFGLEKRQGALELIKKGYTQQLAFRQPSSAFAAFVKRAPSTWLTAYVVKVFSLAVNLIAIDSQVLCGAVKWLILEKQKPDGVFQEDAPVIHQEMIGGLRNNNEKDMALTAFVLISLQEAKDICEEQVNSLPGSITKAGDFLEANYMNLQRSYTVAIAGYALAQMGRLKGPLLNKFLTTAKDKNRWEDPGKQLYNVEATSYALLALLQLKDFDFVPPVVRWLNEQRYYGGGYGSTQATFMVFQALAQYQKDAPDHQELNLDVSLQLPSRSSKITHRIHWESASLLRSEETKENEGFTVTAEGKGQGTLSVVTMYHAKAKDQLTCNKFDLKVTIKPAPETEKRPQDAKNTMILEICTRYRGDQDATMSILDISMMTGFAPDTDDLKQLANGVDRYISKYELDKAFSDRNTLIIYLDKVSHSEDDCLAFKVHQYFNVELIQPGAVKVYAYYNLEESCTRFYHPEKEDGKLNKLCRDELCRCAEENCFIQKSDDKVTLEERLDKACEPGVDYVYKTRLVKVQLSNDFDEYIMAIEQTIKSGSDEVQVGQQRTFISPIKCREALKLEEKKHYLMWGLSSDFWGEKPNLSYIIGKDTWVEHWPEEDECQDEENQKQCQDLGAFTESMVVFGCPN
complement iC3b (human), one chain, as listed by the source, chain 1 of 3: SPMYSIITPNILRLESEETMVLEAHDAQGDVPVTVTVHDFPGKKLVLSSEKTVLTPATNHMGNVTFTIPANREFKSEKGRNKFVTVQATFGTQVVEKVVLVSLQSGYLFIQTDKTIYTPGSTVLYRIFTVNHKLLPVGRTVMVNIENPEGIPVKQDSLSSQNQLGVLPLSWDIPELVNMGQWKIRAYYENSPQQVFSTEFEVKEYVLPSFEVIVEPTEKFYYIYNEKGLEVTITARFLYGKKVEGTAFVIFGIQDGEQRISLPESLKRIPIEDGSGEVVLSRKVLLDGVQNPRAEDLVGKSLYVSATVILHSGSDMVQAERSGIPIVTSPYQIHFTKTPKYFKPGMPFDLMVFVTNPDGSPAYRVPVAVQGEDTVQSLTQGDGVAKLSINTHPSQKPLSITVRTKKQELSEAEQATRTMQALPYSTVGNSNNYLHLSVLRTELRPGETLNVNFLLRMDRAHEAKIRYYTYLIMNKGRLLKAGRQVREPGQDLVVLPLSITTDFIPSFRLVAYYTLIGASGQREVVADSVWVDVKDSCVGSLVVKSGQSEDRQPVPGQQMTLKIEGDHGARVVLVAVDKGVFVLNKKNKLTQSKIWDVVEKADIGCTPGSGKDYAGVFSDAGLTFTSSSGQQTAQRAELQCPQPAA

GGGACGGAUUUAAUCGCCGUAGAAAAGCAUGUCAAAGCCGGAACCGUCCCGAAUUAAAUGCCCGCCAUGACCAG / CTGGTCATGGCGGGCATTTAATTC [E07s-e annealed to biotin DNA oligo]
binding result (EGFR on MDA-MB-231 cells): binds

GGGACGGAUUUAAUCGCCGUAGAAAAGCAUGUCAAAGCCGGAACCGUCCCUUGCCAUGUGUAUGUGGG / GGGCCCCUCGGCCGCGUUCAGCGUCUAACCUUGGGCCCGGAUCAAUCAUGGCAA / CCCACAUACUUUGUUGAUCC [Trifecta-t (Ft1/Ft2/Ft3)]
binding result (complement iC3b (human); single occupancy, 2'-fluoro pyrimidines in Ft1, Ft2, Ft3 is DNA with U instead of T, label: 32P on strand with C3 aptamer): binds

GGGACGGAUUUAAUCGCCGUAGAAAAGCAUGUCAAAGCCGGAACCGUCCCUUGCCAUGUGUAUGUGGGCCC / GGGCCCACAUACUUUGUUGAUCCGGGCCCCUCGGCCGCGUUCAGCGUCUAACCUUGGGCCCGGAUCAAUCAUGGCAA [Trifecta-b (Fb1/Fb2)]
binding result (complement iC3b (human); single occupancy, 2'-fluoro pyrimidines, label: 32P on strand with C3 aptamer): binds

GGGAGAAUUCAACUGCCAUCUAACCACGUAGUAAUACGGUAUGAUCCAGUUUUAAUUCUAACCAGACUGUUCAGAUGACUACAAGCUUCUGGACUCGGU [AptC3-VI]
binding result (complement C3 (human); 250 nM protein, 45 min at 37 C): binds more weakly
binding result (complement iC3b (human); 250 nM protein, 2'-fluoro pyrimidines, label: 32P): binds more weakly

GGGAGAAUUCAACUGCCAUCUACAGCCCCUCGGCCGCGUUCAGCGUCUAACCUUGGGCUGUAUAGAAAGGGUUUCCAGACUACAAGCUUCUGGACUCGGU [AptC3-III]
binding result (complement C3b (human)): binds

GGGAGAAUUCAACUGCCAUCUAGCUACAAAAAUACGAGGAAAGCAAAGUACCAGUGUAGCUACCAAAAGGAGUAGUAAAACACUACAAGCUUCUGGACAUCGGU [AptC3-I]
binding result (complement C3 (human); Kd of the six aptamers in range 10-60 nM, 45 min at …): binds

GGGAGAAUUCAACUGCCAUCUAGCUACGUGGAACCUAAGGUUAAACCGUAUGAUGCAGUUGUACACUCCAAACGAAGAACUACAAGCUUCUGGACUCGGU [AptC3-V]
binding result (complement iC3b (human); selected on iC3b, 2'-fluoro pyrimidines, label: 32P): binds

GGGAGAAUUCAACUGCCAUCUAGCUUGACCAAUAAGACGUAUUGGCCUCCUACGCAUGGCAAGCAGUUCUCUCUACUGAACUACAAGCUUCUGGACUCGGU [AptC3-II]
binding result (complement C3 (human); Kd of the six aptamers in range 10-60 nM, competes with AptC3-III, 45 min at 37 C): binds

GGGAGAAUUCAACUGCCAUCUAGUUGCAAAAACAUGAGGAUAGCAAAGUACCAGUGCAACUAACAAGGAAAAGAAGACGGACUACAAGCUUCUGGACUCGGU [AptC3-IV]
binding result (complement C3 (human); 250 nM protein, 45 min at 37 C): binds more weakly

— article PMC8775132
